Test results taken from PMC3346753.
These are yes or no findings as the source states them, for the method shown. In cells and extracts the contact can be indirect. Some entries that bind do so weakly or less than the wild type.

Protein sequences, listed by entry. Tags and fused reporters are not part of them.
UniProt Q9EPW2: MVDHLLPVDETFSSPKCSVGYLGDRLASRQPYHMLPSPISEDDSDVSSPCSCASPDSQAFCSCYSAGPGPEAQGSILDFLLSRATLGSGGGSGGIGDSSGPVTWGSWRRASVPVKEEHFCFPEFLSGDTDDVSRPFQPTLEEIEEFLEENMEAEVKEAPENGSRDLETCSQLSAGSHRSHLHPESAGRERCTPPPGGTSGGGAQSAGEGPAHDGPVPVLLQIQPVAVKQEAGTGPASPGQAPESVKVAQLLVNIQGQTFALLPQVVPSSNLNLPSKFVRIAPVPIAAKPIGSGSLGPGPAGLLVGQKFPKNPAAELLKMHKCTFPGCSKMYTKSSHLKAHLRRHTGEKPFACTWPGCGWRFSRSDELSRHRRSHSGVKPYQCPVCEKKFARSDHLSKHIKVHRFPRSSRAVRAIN

Target: GST-KLF15 fusion protein (mouse) (UniProt Q9EPW2)
Experiment: pull-down; GST-KLF15 bound to Glutathione Sepharose 4B beads as bait; in vitro translated 35S-labelled proteins (TNT quick coupled system) assayed for binding; only the target purified

Row | binding | Binder
1 | binds | Myocardin Related Transcription Factor A (MRTF-A), in vitro translated, 35S-labeled (protein, UniProt Q8K4J6 1-964, 35S methionine label) MTLLEPEMLMMAVQSVLQLKLQQRRTREELVSQGIMPPLKSPAAFHEQRRSLERARTEDYLKRKIRSRPERAELVRMHILEETSAEPSLQAKQLKLKRARLADDLNEKIAQRPGPMELVEKNILPVESSLKEAIIVGQVNYPKVADSSSFDEDSSDALSPEQPASHESQGSVPSPLESRVSDPLPSATSISPTQVLSQLPMAPDPGETLFLAEQPPLPPAPLLPPSLANGSIVPTAKPAPTLIKQSQPKSASEKSQRSKKAKELKPKVKKLKYHQYIPPDQKQDKGAPAMDSSYAKILQQQQLFLQLQILNQQQQQQQQQHYNYQAILPAPPKPSAETPGSSAPTPSRSLSTSSSPSSGTPGPSGLARQSSTALAAKPGALPANLDDMKVAELKQELKLRSLPVSGTKTELIERLRAYQDQVSPAPGAPKAPATTSVLSKAGEVVVAFPAALLSTGSALVTAGLAPAEMVVATVTSNGMVKFGSTGSTPPVSPTPSERSLLSTGDENSTPGDAFGEMVTSPLTQLTLQASPLQIVKEEGARAASCCLSPGARAELEGLDKDQMLQEKDKQIEELTRMLQQKQQLVELLRLQLEQQKRAQQPAPASSPVKRESGFSSCQLSCQPQGSAHAFGSGLVVPTTNHGDTQAPAPESPPVVVKQEAGPPEPDLAPSSQLLLGSQGTSFLKRVSPPTLVTDSTGTHLILTVTNKSADGPGLPAGSPQQPLSQPGSPAPGPPAQMDLEHPPQPPFATPTSLLKKEPPGYEETVTQQPKQQENGSSSQHMDDLFDILIQSGEISADFKEPPSLPGKEKSPPAAAAYGPPLTPQPSPLSELPQAAPPPGSPTLPGRLEDFLESSTGLPLLTSGHEGPEPLSLIDDLHSQMLSSSAILDHPPSPMDTSELHFAPEPSSGMGLDLAVGHLDSMDWLELSSGGPVLSLAPLSTAAPSLFSMDFLDGHDLQLHWDSCL
2 | binds | Myocardin Related Transcription Factor B (MRTF-B), in vitro translated, 35S-labeled (protein, UniProt P59759 1-1080, 35S methionine label) MIDSSKKQPQGFPEILTAEDFEPFKEKECLEGSNQKSLKEVLQLRLQQRRTREQLVDQGIMPPLKSPAAFHEQIKSLERARTENFLKHKIRSRPDRSELVRMHILEETFAEPSLQATQMKLKRARLADDLNEKIAQRPGPMELVEKNILPVDSSVKEAIIGVVKEDYPHTHGEFSFDEDSSDALSPDQPASQESQGSAASPSEPKVSASPPPVTASTPAQFTSVSPAVPEFLKTPLTADQPPTRSTAPVLPTNTVSSAKSGPMLVKQSHPKNPNDKHRSKKCKDPKPRVKKLKYHQYIPPNQKGEKSEPQMDSNYARLLQQQQLFLQLQILSQQQQQQQQQHYNYQTILPAPIKTDKNSSSGSNSGSSSSMPARRPGPLPSSLDDLKVSELKTELKLRGLPVSGTKPDLIERLKPYQEVTSSNLATGSIVAVSSATIVTSNPEVTVALPVTTLHNAVTSSVSTFKADLALPATSSVPHVENAHSPLPISPSPSEQSSLSTDDTNMTDTFTEIMTMMSPSQLLCSSPLRVVSHDDSLSPSSSTLSTLELDAAEKDRKLQEKEKQIEELKRKLEQEQKLVEVLKMQLEVEKRGQQRPPDPQPSDPPHPFNTSDPKHGSVGSSIKDEASLPDCSSPQQPITVPGHSVGQPISTGSQTLVAKKTVVVKQEVPMAQAEQQNVVSQFYLSSQGQPPALVAQPQALLTTQTTQLLLPVSIQGSNVTSVQLPVGSLQLQTPAQGRVQAQPHVAAATQVPAAALPSALTSALPQKQEAFPQHVLGQPQPVRKVFTNSAPNTVLQYQRQPGPTNQQPFVSKTSNPALQSRTAPLAPLQNGPSLASKPSSPPPPQQFVVQHSLFATPITKTKDPPRYEEAIKQTRSTQPALPEVSSVHSQQMDDLFDILIKSGEISFPIKEEPSPISKMKPVTASITTMPVNTVVSRPPPQVQIAPPVSLEPVNSLSASLENQLEAFLDGTLPSATDTGPLQNSSEDRESFSLIEDLQNDLLSHSSMLYQSHSPMETSEAQLVSGTPCLSLDLSDSNLDNMEWLDITMPTTSSGLTPLSTTAPSMFSADFLDPQDLPLPWD
3 | no binding | serum response factor (SRF), in vitro translated, 35S labeled (protein, UniProt P11831 1-508, 35S methionine label) MLPTQAGAAAALGRGSALGGSLNRTPTGRPGGGGGTRGANGGRVPGNGAGLGPGRLEREAAAAAATTPAPTAGALYSGSEGDSESGEEEELGAERRGLKRSLSEMEIGMVVGGPEASAAATGGYGPVSGAVSGAKPGKKTRGRVKIKMEFIDNKLRRYTTFSKRKTGIMKKAYELSTLTGTQVLLLVASETGHVYTFATRKLQPMITSETGKALIQTCLNSPDSPPRSDPTTDQRMSATGFEETDLTYQVSESDSSGETKDTLKPAFTVTNLPGTTSTIQTAPSTSTTMQVSSGPSFPITNYLAPVSASVSPSAVSSANGTVLKSTGSGPVSSGGLMQLPTSFTLMPGGAVAQQVPVQAIQVHQAPQQASPSRDSSTDLTQTSSSGTVTLPATIMTSSVPTTVGGHMMYPSPHAVMYAPTSGLGDGSLTVLNAFSQAPSTMQVSHSQVQEPGGVPQVFLTASSGTVQIPVSAVQLHQMAVIGQQAGSSSNLTELQVVNLDTAHSTKSE
